# PubChem BioAssay AID1259415 (National Center for Advancing Translational Sciences (NCATS), 2018)
# The whole screen tested about 410,000 compounds, of which about 18,000 (4.4%) were called active. This list was built around the results that the source calls inconclusive (neither active nor inactive); the mix of calls is not that of the screen. No stated cut-off is given here; in the data, active means activity change below about -60%; inconclusive means no clear call, values can overlap the other calls; inactive means above about -39%.
# Experiment: qHTS Assay for inhibitors of the human cytomegalovirus (HCMV)
# Settings: HFF cells, HCMV-luciferase reporter, 72 h; at 57.5 µM; stronger effect = lower value
# Summary of the method: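 Luciferase read-out from HCMV-luciferase-infected HFFs (MOI 1 PFU/cell) 72 h post infection at 37C; compounds added after 16 h cell attachment; activity normalized between buffer-only basal and Salinomycin (10uM) inhibitor controls.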
# On the % scale 0 is the no-effect control and ±100 the full control effect.
row,SMILES,"activity change, negative = inhibition"
1,CCOC(=O)c1c(C=O)c2sc(C)cc2n1C,inactive: -14.6%
2,CCCCCn1c(=O)c(C(=O)Nc2cnccn2)c(O)c2ccccc21,inconclusive: -43.9%
3,Cc1ccc(-c2nnc(SCC(=O)N/N=C/c3ccccc3C(=O)O)n2-c2ccc(C)cc2)cc1,inconclusive: -52.1%
4,COc1cc(CNc2ccc3[nH]c(=O)[nH]c3c2)cc(Br)c1OCC(=O)NC(C)(C)C,active: -70.7%
5,CN(C(=O)c1cccc(NC(=O)Cc2ccc(NC(=O)C3CCCN(C(=O)C4CCCC4)C3)cc2)c1)C1CC1 (stereo not drawn),inactive: 54.2%
6,CCN(CC)CCNC(=O)c1ccc(CS(=O)(=O)c2ccccc2C)o1,inconclusive: -47%
7,CCS(=O)(=O)c1ccc(C(=O)Nc2cccc(Cl)c2)c(Cl)c1Cl,inconclusive: -56%
8,COc1ccc2[nH]c3nc(SCC(=O)NC4CC4)nnc3c2c1,inactive: 13.8%
9,O=C(c1ccc(=O)oc1)N1CCCc2ccccc21,inactive: -32.6%
10,Cc1cc(NC(=O)CS(=O)(=O)c2cn(Cc3ccccc3Cl)c3ccccc23)no1,inconclusive: -41%
11,COC(OC)C12c3ccccc3C(c3ccccc31)C1C(=O)N(c3cccnc3)C(=O)C12 (stereo not drawn),inconclusive: -42.5%
12,Cn1cccc1C(=O)c1cccc([N+](=O)[O-])c1,inactive: -6.34%
13,Cc1nc2nc(C)c(NS(=O)(=O)c3cccs3)c(=O)n2[nH]1,inconclusive: -47.6%
14,COc1cc(CNCCNC(=O)c2nonc2N)ccc1OCc1ccc(Cl)nc1,inconclusive: -47.9%
15,CC1CCN(c2ccc(NC(=S)NC(=O)c3ccco3)cc2)CC1,inconclusive: -58.6%
16,CCOC(=O)c1ccc(NC(=O)NCCN2CCCCC2)cc1,inactive: 27.5%
17,Cc1cccc(NC(=O)CN(C)C(=O)c2ccc(N3CCCCCC3)c([N+](=O)[O-])c2)c1C,inconclusive: -43.3%
18,CCCc1cc(=O)oc2c(C)c(OCC(=O)Nc3cccnc3)ccc12,inconclusive: -45%
19,O=c1[nH]c(Cc2ccc(F)cc2)nc2scc(-c3ccc(F)cc3)c12,inconclusive: -44%
20,O=C(CCn1c(=O)c2cccn2c2ccc(F)cc21)NCCc1ccccc1Cl,inconclusive: -47.9%
21,S=C(NCc1ccccc1)Nc1cccc2cnccc12,active: -86.7%
22,COc1ccccc1NC(=O)Cn1c(=O)n(Cc2ccccc2)c(=O)c2ccccc21,inactive: -15.8%

# Quoted at random: two entries already listed
row,SMILES,"activity change, negative = inhibition"
9,O=C(c1ccc(=O)oc1)N1CCCc2ccccc21,inactive: -32.6%
2,CCCCCn1c(=O)c(C(=O)Nc2cnccn2)c(O)c2ccccc21,inconclusive: -43.9%

# Next part

row,SMILES,"activity change, negative = inhibition"
1,S=C(c1ccc(Cl)cc1)N1CCN(Cc2ccccc2)CC1,inconclusive: -40.7%
2,CC(=O)N[C@@H](Cc1c[nH]c2ccccc12)C(=O)OCc1cc(C(F)(F)F)cc(C(F)(F)F)c1,inconclusive: -45.4%
3,CC(C)Cn1c(=S)[nH]c2cc(Cl)ccc21,inconclusive: -56.7%
4,C[C@@H]1CN([C@@H](C)CO)C(=O)c2cc(NC(=O)C3CCCCC3)ccc2O[C@@H](C)CCCCO[C@H]1CN(C)S(=O)(=O)c1ccc(Cl)cc1,inactive: -28.9%
5,Cc1ccc(S(=O)(=O)CCC(=O)N(CCCN2CCOCC2)c2nc3ccccc3s2)cc1,inactive: 33.1%
6,COc1cc(OC)c(C(=O)OCC(=O)Nc2ccc(N3CCOCC3)cc2)cc1OC,inactive: 60.1%
7,O=C(CN1CCN(c2ccc(Cl)cc2)CC1)NCc1cccs1,inactive: -26.2%
8,CCCCOc1ccc(-c2cc(C(=O)NNC(=S)NCC)c3ccccc3n2)cc1,active: -92.7%
9,O=C(CCSCCc1ccccn1)Nc1ccc(Cc2ccncc2)cc1,inactive: 34.1%
10,CCOC(=O)C1CCN(C(=O)C2CCN(c3nnc(-n4cccc4)s3)CC2)CC1,inactive: -2.27%
11,Cc1cccc(C)c1NC(=O)CN1CCN(c2ccc(C(F)(F)F)cn2)CC1,inconclusive: -41.5%
12,O=C(CNC(=O)c1ccccc1F)OCC(=O)N1CCCc2ccccc21,inconclusive: -40.2%
13,COc1ccc(NC(=O)CN2c3cccc4cccc(c34)S2(=O)=O)cc1OC,inconclusive: -55.2%
14,O=C(CCN1C(=O)C2CC=CCC2C1=O)Nc1cccc(Cl)c1 (stereo not drawn),inconclusive: -41.8%
15,CCOc1ccc(CCNC(=O)c2ccc(CS(=O)(=O)Cc3ccccc3Cl)o2)cc1OCC,inactive: 0%
16,Cc1cc(N2CCN(C(=O)OC(C)(C)C)C[C@H]2C)ccc1N1CCS(=O)(=O)CC1,inconclusive: -49.1%
17,CCc1ccc(NC(=O)Cn2ccn(-c3cccc(Cl)c3)c(=O)c2=O)cc1,inconclusive: -42.6%
18,CCc1ccccc1NC(=O)Nc1cc(F)ccc1F,inconclusive: -52.5%
19,COC(=O)C1=C(C)NC(C)=C(C(=O)O[C@@H]2CCCN(Cc3ccccc3)C2)[C@@H]1c1cccc([N+](=O)[O-])c1,inconclusive: -43.7%
20,CCCCCOc1ccc(C)cc1CN(CCCl)CCCl,inconclusive: -53.9%
21,COc1ccc(CNC(=O)CCCNC(=O)c2ccc(Cl)cc2)cc1OC,inconclusive: -54.2%
22,O=[N+]([O-])c1cccc2c(Cl)ccnc12,inconclusive: -46%

row,SMILES,"activity change, negative = inhibition"
1,Cc1ccc(C)c(NC(=O)C(=O)NCCc2csc(-c3cccc(F)c3)n2)c1,inactive: -2.18%
2,O=C(c1ccccc1)N1CCN(Cc2cccc(Oc3ccccc3)c2)CC1,inconclusive: -57.1%
3,CC(C)CCN1C(=O)c2ccc(C(=O)Nc3ccccc3C(=O)O)cc2C1=O,inconclusive: -41%
4,O=C(c1cc(C(=O)NCCc2ccccc2)c(=O)n(CCc2ccccc2)c1)c1cc(Cl)ccc1O,inactive: -14.9%
5,Cc1cccc(NC(=O)Cn2cnc3c(oc4ccccc43)c2=O)c1C,inconclusive: -47.8%
6,COc1ccc2nc(SCC(=O)NCc3ccc4c(c3)OCO4)[nH]c2c1,inconclusive: -48.6%
7,Cc1ccc(S(=O)C(c2ccccc2)c2ccccc2)cc1 (stereo not drawn),inconclusive: -60%
8,Cn1c(-c2ccc(-c3ccccc3)cc2)c[nH]c1=S,inconclusive: -41%
9,C=C(C)C1(O)OC(=O)C=C1OC (stereo not drawn),inactive: -17.2%
10,CCc1ccc(OC(C)c2nnc(SCC(=O)Nc3ncccc3C)n2C)cc1 (stereo not drawn),inconclusive: -47.6%
11,S=C(Nc1ccc(Oc2ccc(NC(=S)NC3CCCCC3)cc2)cc1)NC1CCCCC1,inconclusive: -47.9%
12,CCn1c(C)cc(C(=O)COC(=O)c2cccnc2SC)c1C,inactive: -26.3%
13,CC(CC(C)(C)N1CC1)=NO,inconclusive: -51.2%
14,CCNC(=S)Nc1ccc(Cl)c(C(F)(F)F)c1,inconclusive: -44.7%
15,O=C(c1ccco1)N1CCCC(Nc2ccc3c(c2)OCCO3)C1 (stereo not drawn),inactive: 75%
16,CN1CCN(C(=O)c2ccc(Oc3ccc([N+](=O)[O-])cc3)cc2)CC1,inactive: 26.1%
17,CN1CCN(c2ccc(N)cc2Cl)CC1,inconclusive: -56.3%
18,COc1ccc(S(=O)(=O)N2CCCC2)cc1Br,inactive: 13.5%
19,Cc1ccc(CNC(=O)CCc2c(C)nn(-c3ccc(N4CCCC4)nn3)c2C)cc1,inactive: 19.6%
20,COc1cc(C(C[N+](=O)[O-])c2c(N)n(C)c(=O)n(C)c2=O)ccc1O (stereo not drawn),active: -70.7%
21,CCOc1ccccc1Nc1nnc(SCC(=O)Nc2nc(-c3ccc(OC)cc3)cs2)s1,inactive: 0.998%
22,O=C(CCN1CCCCCC1)Nc1cccc(Cl)c1,active: -60.5%

# Reformatted tab-delimited: three of the compounds above.
row	SMILES	activity change, negative = inhibition
11	S=C(Nc1ccc(Oc2ccc(NC(=S)NC3CCCCC3)cc2)cc1)NC1CCCCC1	inconclusive: -47.9%
12	CCn1c(C)cc(C(=O)COC(=O)c2cccnc2SC)c1C	inactive: -26.3%
13	CC(CC(C)(C)N1CC1)=NO	inconclusive: -51.2%

# The list goes on.

row,SMILES,"activity change, negative = inhibition"
1,COc1cc(OC)cc(C(=O)OCc2ccc([N+](=O)[O-])cc2)c1,inconclusive: -41.1%
2,CC(Nc1nc(-c2ccc3c(c2)NC(=O)CO3)cs1)c1ccccc1 (stereo not drawn),inconclusive: -42.6%
3,Cc1oc2c(O)c(O)ccc2c(=O)c1-c1ccccc1,inactive: -15.1%
4,CC1=C2[C@@H]3OC(=O)[C@H](C)C3CC[C@@]2(C)C=CC1=O (stereo partly drawn),inconclusive: -44.5%
5,CSc1ncnc2c1ncn2CCCN[C@H](C)c1cccc2ccccc12,inconclusive: -55.4%
6,O=C(NC1CCCCC1)N1CCCC(c2nc(-c3ccc(S(=O)(=O)N4CCCC4)cc3)no2)C1 (stereo not drawn),inconclusive: -45.8%
7,CCCCN(CC)CCCNC(=O)c1csc2c1CCCCC2,inconclusive: -49.8%
8,Cc1ccc(-n2c(C)nc3cc(Cl)ccc3c2=O)nc1,inactive: -3.49%
9,CC1CC(C)CN(C(=O)CNC(=O)c2sc3ccccc3c2Cl)C1 (stereo not drawn),inconclusive: -47.9%
10,Cc1ccc(-n2c(SCC(=O)NC3CCS(=O)(=O)C3)nc3ccccc3c2=O)c(C)c1 (stereo not drawn),inactive: -23.7%
11,Cc1ccc(C(=O)Nc2nc3ccccc3[nH]2)cc1,active: -84.4%
12,C[C@H](NC(=O)c1nc[nH]c1C(=O)NCC(=O)OCc1ccccc1)C(=O)OC(C)(C)C,inconclusive: -46.3%
13,O=C(CSc1nnnn1-c1ccccc1)Nc1ncc(Cc2cccc(Cl)c2Cl)s1,inconclusive: -46.8%
14,COc1ccc(/C=N/NC(=O)c2ccoc2C)cc1OC,inactive: 24.4%
15,Cc1ccn2c(CNCc3cnn(C)c3)c(C(=O)N3CCCCCC3)nc2c1,inconclusive: -40.3%
16,Cc1ccc(/C=C/C(=O)O)cc1S(=O)(=O)Nc1ccccc1C(=O)O,inactive: 15.6%
17,COc1ccc(C(=O)NCc2nnc(SCC(=O)N3CCC(C)CC3)o2)cc1,inconclusive: -51.7%
18,COc1ccc(Nc2nnc(-c3ccc(C)c(S(=O)(=O)N4CCN(C)CC4)c3)c3ccccc23)cc1,active: -99.1%
19,CCN(c1ccccc1)S(=O)(=O)c1ccc(Cl)nc1,inactive: 2.87%
20,CC(C)c1ccc(C2(C)NC(=O)N(CC(=O)NCC3COc4ccccc4O3)C2=O)cc1 (stereo not drawn),inactive: 18.2%
21,CCC(=NCCN1CCNCC1)C1=C(O)CC(C)(C)CC1=O,inconclusive: -46.6%
22,Cc1ccc(N=Cc2c(O)n(-c3cc(Cl)ccc3N3CCOCC3)c(=O)c3ccccc23)cc1C,inconclusive: -55.1%
